The other results are listed elsewhere or left out. Further columns of the screen follow, without active or inactive calls. The list favours compounds with an active or inconclusive main result. Potencies come from curve fits of mixed quality, noted in brackets.
Assay: qHTS Assay to Find Inhibitors of Chronic Active B-Cell Receptor Signaling
Details: ABC-DLBCL IkBa-CBG/CBR reporter, luminescence ratio (green luciferase fused to IkBa over red control in TMD8 lymphoma cells), 4 h
Method in brief: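 TMD8 ABC-DLBCL cells carrying doxycycline-inducible green luciferase fused to IkappaBalpha plus unfused red luciferase were exposed to compounds (up to 46 uM) for 4 hrs at 37C. Activity came from the overlap-corrected green/red luminescence ratio.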

[1] = measured here: CBR red luminescence, cell number

Compound	AC50 [1]	AC50 (measured here: IkBa-CBG green luminescence)
CS(=O)(=O)c1ccc2nc(NC(=O)c3ccccc3Br)sc2c1	22.4 µM [falling, single point]	–
CCn1c2ccccc2c2cc(NC(=O)CSc3nnc(-c4cccc(OC)c4)n3N)ccc21	3.66 µM [falling, partial curve, poor fit]	–
COc1ccc(S(=O)(=O)NCC2CCCN(C(=O)c3occc3C)C2)cc1 (configuration not stated)	0.708 µM [rising, partial curve, poor fit]	–
CCN(CC)CCNc1cc(C)c(C#N)c2nc3ccccc3n12	15.8 µM [falling, partial curve, poor fit]	–
CC(C(=O)Nc1ccc([N+](=O)[O-])cc1)N1CCN(C/C=C/c2ccccc2)CC1 (configuration not stated)	11.6 µM [falling, partial curve, poor fit]	–
O=C(Nc1nnc(COc2ccc(F)cc2)s1)c1cccs1	5.8 µM [rising, full curve, poor fit]	–
CCOc1ccc(NC(=S)N(CCN2CCOCC2)Cc2cc3cc4c(cc3[nH]c2=O)OCCO4)cc1	2.24 µM [rising, partial curve, poor fit]	–
N[C@@H](Cc1ccc(O)cc1)C(=O)Nc1ccc2ccccc2c1	1.03 µM [falling, full curve, poor fit]	–
OC(CNCCc1ccc(Cl)cc1)COc1cc(Cl)ccc1Cl (configuration not stated)	14.1 µM [rising, single point]	–
COc1c(Cl)cc(Cl)cc1CNCCNCC(C)O (configuration not stated)	1 µM [falling, full curve, poor fit]	–
CC(C)CNC(=O)/C=C/C=C/c1ccc2c(c1)OCO2	20.6 µM [falling, single point]	–
CC(/C=N/NC(=O)c1cc(C2CC2)[nH]n1)=C\c1ccccc1	3.55 µM [rising, partial curve, poor fit]	–
S=C1Nc2cc(Cl)ccc2Sc2ccccc21	23.1 µM [rising, single point]	–
COc1cc(OC)cc(-c2nc(-c3cccs3)no2)c1	6.31 µM [rising, partial curve, poor fit]	–
CC(=O)NCCC(=O)Nc1nc(-c2c[nH]c3ccccc23)cs1	35.5 µM [falling, single point]	–
O=C(COC(=O)Cc1ccc(Cl)cc1)NCCc1ccccc1	14.6 µM [rising, single point]	–
O=C(O)c1ccc(-c2nc(-c3ccccc3Cl)cs2)cc1	0.501 µM [falling, full curve, poor fit]	–
O=C(c1ccco1)N1CCN(S(=O)(=O)c2c(Cl)cccc2Cl)CC1	3.16 µM [rising, partial curve, poor fit]	–
COc1ccc(OC)c(NC(=O)c2ccc(-n3cccn3)nc2)c1	1.12 µM [falling, full curve, poor fit]	–
O=C(Cc1c[nH]c2ccccc12)Nc1nc2ccccc2[nH]1	14.1 µM [falling, partial curve]	–
CC1CC(C)CN(CCC(=O)Nc2ccc3c(c2)CCC3)C1 (configuration not stated)	6.31 µM [rising, single point]	–

An excerpt of these results, bar-delimited.
Compound | AC50 [1] | AC50 (measured here: IkBa-CBG green luminescence)
N[C@@H](Cc1ccc(O)cc1)C(=O)Nc1ccc2ccccc2c1 | 1.03 µM [falling, full curve, poor fit] | –
OC(CNCCc1ccc(Cl)cc1)COc1cc(Cl)ccc1Cl (configuration not stated) | 14.1 µM [rising, single point] | –
COc1c(Cl)cc(Cl)cc1CNCCNCC(C)O (configuration not stated) | 1 µM [falling, full curve, poor fit] | –
CC(C)CNC(=O)/C=C/C=C/c1ccc2c(c1)OCO2 | 20.6 µM [falling, single point] | –
CC(/C=N/NC(=O)c1cc(C2CC2)[nH]n1)=C\c1ccccc1 | 3.55 µM [rising, partial curve, poor fit] | –
S=C1Nc2cc(Cl)ccc2Sc2ccccc21 | 23.1 µM [rising, single point] | –
COc1cc(OC)cc(-c2nc(-c3cccs3)no2)c1 | 6.31 µM [rising, partial curve, poor fit] | –
CC(=O)NCCC(=O)Nc1nc(-c2c[nH]c3ccccc23)cs1 | 35.5 µM [falling, single point] | –
O=C(COC(=O)Cc1ccc(Cl)cc1)NCCc1ccccc1 | 14.6 µM [rising, single point] | –
O=C(O)c1ccc(-c2nc(-c3ccccc3Cl)cs2)cc1 | 0.501 µM [falling, full curve, poor fit] | –
O=C(c1ccco1)N1CCN(S(=O)(=O)c2c(Cl)cccc2Cl)CC1 | 3.16 µM [rising, partial curve, poor fit] | –

(further entries)

Compound	AC50 [1]	AC50 (measured here: IkBa-CBG green luminescence)
N#Cc1ccc(NC(=O)c2cc(=O)c3ccccc3o2)cc1	0.794 µM [rising, full curve, poor fit]	–
O=C(Nc1ccc(F)cc1)c1ccc(S(=O)(=O)N2CCCC2)cc1	1.41 µM [rising, partial curve, poor fit]	–
Cc1ccc2cc(C(c3nnnn3C3CCCC3)N3CCN(c4ccc(F)cc4)CC3)c(=O)[nH]c2c1 (configuration not stated)	10.3 µM [rising, partial curve, poor fit]	–
C=CCn1c(=O)c2ccccc2n2c(Sc3nnnn3-c3ccccc3)nnc12	3.98 µM [falling, single point]	–
COc1ccc(Br)c(-c2nc(CS(=O)(=O)c3ccc(F)cc3)no2)c1	1.58 µM [rising, partial curve, poor fit]	–
Cc1ccc(CN2C(=NC(=O)CCC(=O)O)SC3CS(=O)(=O)CC32)cc1 (configuration not stated)	6.31 µM [falling, full curve, poor fit]	–
O=C(NCCc1ccccc1)c1ccc2c(c1)S(=O)(=O)N=C1CCCCCN12	13 µM [rising, partial curve, poor fit]	–
O=C(Nc1ccccc1C(=O)N1CCOCC1)c1ccc(F)cc1	29.1 µM [rising, single point]	–
CCc1nc(Nc2ccc3c(c2)OCCO3)c2oc3ccccc3c2n1	6.51 µM [falling, full curve]	–
O=C(c1ccco1)N1CCN(C(=O)C2CCCN(S(=O)(=O)c3cccc4nsnc34)C2)CC1 (configuration not stated)	32.6 µM [falling, single point]	–
COc1cc(/C=C(/C#N)c2nc3ccccc3[nH]2)ccc1OCc1ccc(C(=O)O)o1	12.6 µM [falling, partial curve, poor fit]	–
C=CCn1c(SCC(=O)NCC2CCCO2)nc2scc(-c3ccccc3)c2c1=O (configuration not stated)	35.5 µM [falling, single point]	–
O=C(O)c1ccc2c(=O)n(-c3ccccc3)c(=S)[nH]c2c1	7.94 µM [falling, partial curve]	–
O=C(N/N=C/c1ccc(-c2ccc(Br)cc2)o1)c1ccc2c(c1)OCO2	22.4 µM [falling, single point]	–
O=C(N/N=C/c1ccccn1)c1ccc(S(=O)(=O)N2CCCCCC2)cc1	39.8 µM [falling, partial curve, poor fit]	–
O=C(Cn1nc(Cl)nc1Cl)c1cc2ccccc2oc1=O	17.8 µM [falling, single point]	–
Cc1ccc(S(=O)(=O)N(C)c2ccc(C(=O)NCCc3ccccc3)cc2)cc1	14.1 µM [rising, partial curve, poor fit]	–
COC(=O)c1ccc(CC(=O)c2ccc(O)cc2O)o1	6.31 µM [falling, single point]	–
CCOC(=O)c1nnc(-c2ccccc2)nc1Oc1ccccc1Cl	25.9 µM [falling, single point]	–
Cc1cc(C(=O)COC(=O)c2n[nH]c3ccccc23)c(C)n1C	1.84 µM [falling, full curve]	2.91 µM [rising, partial curve, poor fit]

From PubChem BioAssay AID493014 (National Center for Advancing Translational Sciences (NCATS), 2011)
